Measurements: PMC3764422, “A model of yeast glycolysis based on a consistent kinetic characterisation of all its enzymes” (Febs Letters, 2013)
No constants are given. Whether binding was seen depends on the method and setting. Some results given as binding are weak or reduced against the parent protein; the word gives no strength.

Target: T1, phosphofructokinase beta subunit Pfk2p (S. cerevisiae) (UniProt P16862)
T1 sequence: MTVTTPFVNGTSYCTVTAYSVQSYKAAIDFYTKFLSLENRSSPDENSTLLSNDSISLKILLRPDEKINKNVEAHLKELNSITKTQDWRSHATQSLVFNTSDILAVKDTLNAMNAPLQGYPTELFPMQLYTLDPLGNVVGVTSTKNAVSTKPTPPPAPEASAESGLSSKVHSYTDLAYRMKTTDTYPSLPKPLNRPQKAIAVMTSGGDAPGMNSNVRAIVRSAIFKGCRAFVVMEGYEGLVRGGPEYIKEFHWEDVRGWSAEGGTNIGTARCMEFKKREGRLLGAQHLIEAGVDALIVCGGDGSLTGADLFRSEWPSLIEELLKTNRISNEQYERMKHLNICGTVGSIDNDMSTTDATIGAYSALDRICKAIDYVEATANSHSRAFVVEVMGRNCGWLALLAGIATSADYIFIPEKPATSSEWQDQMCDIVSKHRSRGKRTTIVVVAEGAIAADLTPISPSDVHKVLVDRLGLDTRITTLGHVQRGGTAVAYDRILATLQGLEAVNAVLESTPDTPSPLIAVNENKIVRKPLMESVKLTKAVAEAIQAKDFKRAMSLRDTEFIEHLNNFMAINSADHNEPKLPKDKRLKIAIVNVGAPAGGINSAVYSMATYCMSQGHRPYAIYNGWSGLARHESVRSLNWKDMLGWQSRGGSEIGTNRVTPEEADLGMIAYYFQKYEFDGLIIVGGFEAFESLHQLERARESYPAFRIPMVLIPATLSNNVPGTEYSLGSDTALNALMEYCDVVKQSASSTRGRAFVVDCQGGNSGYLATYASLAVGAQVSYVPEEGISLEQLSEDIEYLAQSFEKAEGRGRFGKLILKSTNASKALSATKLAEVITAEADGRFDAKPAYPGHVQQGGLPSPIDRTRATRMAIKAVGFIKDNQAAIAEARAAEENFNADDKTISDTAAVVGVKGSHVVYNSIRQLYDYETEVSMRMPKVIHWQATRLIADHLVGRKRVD
Test: co-purification; PFK1 and PFK2 co-expressed in S. cerevisiae; protein products co-purified from the Yeast TAP-Tagged collection

B1: phosphofructokinase alpha subunit Pfk1p (enzyme, UniProt P16861 1-987)
chain: MQSQDSCYGVAFRSIITNDEALFKKTIHFYHTLGFATVKDFNKFKHGENSLLSSGTSQDSLREVWLESFKLSEVDASGFRIPQQEATNKAQSQGALLKIRLVMSAPIDETFDTNETATITYFSTDLNKIVEKFPKQAEKLSDTLVFLKDPMGNNITFSGLANATDSAPTSKDAFLEATSEDEIISRASSDASDLLRQTLGSSQKKKKIAVMTSGGDSPGMNAAVRAVVRTGIHFGCDVFAVYEGYEGLLRGGKYLKKMAWEDVRGWLSEGGTLIGTARSMEFRKREGRRQAAGNLISQGIDALVVCGGDGSLTGADLFRHEWPSLVDELVAEGRFTKEEVAPYKNLSIVGLVGSIDNDMSGTDSTIGAYSALERICEMVDYIDATAKSHSRAFVVEVMGRHCGWLALMAGIATGADYIFIPERAVPHGKWQDELKEVCQRHRSKGRRNNTIIVAEGALDDQLNPVTANDVKDALIELGLDTKVTILGHVQRGGTAVAHDRWLATLQGVDAVKAVLEFTPETPSPLIGILENKIIRMPLVESVKLTKSVATAIENKDFDKAISLRDTEFIELYENFLSTTVKDDGSELLPVSDRLNIGIVHVGAPSAALNAATRAATLYCLSHGHKPYAIMNGFSGLIQTGEVKELSWIDVENWHNLGGSEIGTNRSVASEDLGTIAYYFQKNKLDGLIILGGFEGFRSLKQLRDGRTQHPIFNIPMCLIPATVSNNVPGTEYSLGVDTCLNALVNYTDDIKQSASATRRRVFVCEVQGGHSGYIASFTGLITGAVSVYTPEKKIDLASIREDITLLKENFRHDKGENRNGKLLVRNEQASSVYSTQLLADIISEASKGKFGVRTAIPGHVQQGGVPSSKDRVTASRFAVKCIKFIEQWNKKNEASPNTDAKVLRFKFDTHGEKVPTVEHEDDSAAVICVNGSHVSFKPIANLWENETNVELRKGFEVHWAEYNKIGDILSGRLKLRAEVAALAAENK
In the case of B1, the binding is reported as “binds”.
